In ChEMBL document CHEMBL1121793, “Biological effects of modified colchicines. Improved preparation of 2-demethylcolchicine, 3-demethylcolchicine, and (+)-colchicine and reassignment of the position of the double bond in dehydro-7-deacetamidocolchicines” (J Med Chem, 1981):
The source made the active and inactive calls. The rule behind the calls is not given here.

Columns and labels:
[1] = system: P388; assay: The compound was tested for its potency against lymphocytic leukemia P388 screen in mice.; assay type: functional, Mus musculus
[2] = species on record: Mus musculus; assay: Dose of compound which caused an average weight loss >3g in a set of mice or the death of one or more of the mice in the set in the P388 NCI screen.; assay type: functional
Procedure, shortened: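 P388 leukemia-bearing mice, 20–22 g; one im injection daily for 9 days, compound in hydroxypropylcellulose suspension or aqueous solution. Toxic dose = lowest dose level at which ≥1 mouse died on or by day 5, or group mean weight loss >3 g; converted to μmol/kg.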

[3] = system: P388; settings: Mus musculus

Compound	Potency [1] [µM/kg]	Toxicity [2] [µM/kg]	Potency [3]
COc1c(O)cc2c(c1OC)-c1ccc(OC)c(=O)cc1[C@@H](NC(C)=O)CC2 [3-DESMETHYLCOLCHICIN]	3.6	26	
COc1cc2c(c(OC)c1OC)-c1ccc(OC)c(=O)cc1[C@@H](N)CC2 [DEACETYLCOLCHICINE]		28	inactive
